Values from PubChem BioAssay AID720505 (Drosophila RNAi Screening Center, 2013)
Aim: 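Genes needed for store-operated calcium entry in fly cells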 (primary screen). System: Drosophila S2R+ cells. Reagents: long dsRNA against Drosophila genes. Conditions: thapsigargin (2 µM) in calcium-free buffer to empty internal stores, then 2 mM calcium added back. Read-out: 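Stores emptied by 2 µM thapsigargin without calcium, then 2 mM calcium re-added; fluo-4 fluorescence followed by FLIPR in 384-well plates, per-well averaged endpoint, raw; two screen passes, some wells retested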. Direction: calcium signal: higher = more calcium entry after store depletion. Rule for the call: 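About 1500 genes called as lowering calcium entry, by varying amounts, judged against per-plate control wells with STIM1 as positive and Rho1 as negative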. Calls: active = called as lowering calcium entry; inactive = not called.
In all, the deposit lists about 20,000 reagents; below is a random part of those with a known target gene and a result. Of all reagents, about 2,100 (10%) were called active. 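Raw plate signals without normalisation; calls rest on control-based scores that were not deposited; replicate 2 separates called from uncalled poorly.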 Not given: the amount of reagent, the time to read-out.

Target gene | DRSC id | calcium signal, replicate 1 | calcium signal, replicate 2 | Call
CG4617 | DRSC18377 | 100 | 92.3 | inactive
snk | DRSC17060 | 94.6 | 115 | inactive
SPH93 | DRSC02978 | 101 | 109 | inactive
Pkc53E | DRSC05636 | 159 | 111 | inactive
Pkc53E | DRSC07510 | 124 | 93 | inactive
CG3868 | DRSC10380 | 121 | 120 | inactive
prc | DRSC11385 | 117 | 111 | inactive
Octalpha2R | DRSC13319 | – | – | inactive
Octalpha2R | DRSC15314 | 71.1 | 135 | active
Neos | DRSC11235 | 77.3 | 115 | inactive
mRpL22 | DRSC19915 | 152 | 142 | inactive
CG31882 | DRSC01084 | 120 | 82.1 | inactive
CG18371 | DRSC06733 | 103 | 161 | inactive
CG34445 | DRSC22404 | 81.6 | 131 | inactive
CG13436 | DRSC06396 | 77 | 89 | inactive
CG15916 | DRSC19740 | 90.1 | 153 | inactive
GstO1 | DRSC10688 | 64.7 | 46.4 | active
CG5550 | DRSC06943 | 140 | 116 | inactive
barr | DRSC03488 | 97.3 | 92.8 | inactive
alpha4GT2 | DRSC15905 | 274 | 135 | inactive
CG1910 | DRSC15400 | 99.9 | 118 | inactive
CG14431 | DRSC17925 | 83.9 | 220 | active
CG14431 | DRSC17926 | 186 | 135 | inactive
Cds | DRSC10938 | 74.8 | 97.6 | active
CG6431 | DRSC02956 | 88.3 | 88 | inactive
heca | DRSC16964 | 156 | 109 | inactive
heca | DRSC22990 | 109 | 120 | inactive
mira | DRSC16998 | 214 | 267 | inactive
Fur1 | DRSC16676 | 67.2 | 91.5 | active
Or94b | DRSC16773 | 166 | 162 | inactive
cbc | DRSC06957 | 123 | 109 | inactive
CG33958 | DRSC06472 | 157 | 168 | inactive
CG33958 | DRSC06944 | 172 | 138 | inactive
verm | DRSC11038 | 113 | 121 | inactive

Single entries from the entries so far:
snk [DRSC17060], calcium signal, replicate 2 → 115
Entry of Fur1 [DRSC16676] in “calcium signal, replicate 2”: 91.5
Pkc53E [DRSC05636], calcium signal, replicate 1 = 159
Entry for CG3868 [DRSC10380] in “calcium signal, replicate 2”: 120
Value for GstO1 [DRSC10688] under “calcium signal, replicate 2”: 46.4
